17 sequences from the supplement of paper PMC2577665 can be followed below.

± gives the standard deviation of the averaged measurements. Single values of this set are uncertain.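 Each test well overexpressed one poorly characterized human cDNA in ERalpha-negative HeLa cells together with transfected ERalpha and a reporter carrying two estrogen response elements. A gene counted as a repressor hit if it cut the signal to the level of the BRCA1 positive control (about 0.6 of empty vector) or lower.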

The test system of this data set is ERE-luciferase reporter with exogenous ERalpha in HeLa cells. The data set is described as follows: relative ERE luciferase activity (Firefly/Renilla) upon cDNA overexpression, relative to empty vector (fold of empty vector); higher = stronger ERalpha transactivation (less repression). Particulars: 17beta-estradiol: 10 nM; 12 h.
In the case of “MDSSREPTLGRLDAAGFWQVWQRFDADEKGYIEEKELDAFFLHMLMKLGTDDTVMKANLHKVKQQFMTTQDASKDGRIRMKELAGMFLSEDENFLLLFRRENPLDSSVEFMQIWRKYDADSSGFISAAELRNFLRDLFLHHKKAISEAKLEEYTGTMMKIFDRNKDGRLDLNDLARILALQENFLLQFKMDACSTEERKRDFEKIFAYYDVSKTGALEGPEVDGFVKDMMELVQPSISGVDLDKFREILLRHCDVNKDGKIQKSELALCLGLKINP [SCGN]”, the “relative ERE luciferase activity” value came out at 1.07.
The result for “MDVENEQILNVNPADPDNLSDSLFSGDEENAGTEEIKNEINGNWISASSINEARINAKAKRRLRKNSSRDSGRGDSVSDSGSDALRSGLTVPTSPKGRLLDRRSRSGKGRGLPKKGGAGGKGVWGTPGQVYDVEEVDVKDPNYDDDQENCVYETVVLPLDERAFEKTLTPIIQEYFEHGDTNEVAEMLRDLNLGEMKSGVPVLAVSLALEGKASHREMTSKLLSDLCGTVMSTTDVEKSFDKLLKDLPELALDTPRAPQLVGQFIARAVGDGILCNTYIDSYKGTVDCVQARAALDKATVLLSMSKGGKRKDSVWGSGGGQQSVNHLVKEIDMLLKEYLLSGDISEAEHCLKELEVPHFHHELVYEAIIMVLESTGESTFKMILDLLKSLWKSSTITVDQMKRGYERIYNEIPDINLDVPHSYSVLERFVEECFQAGIISKQLRDLCPSRGRKRFVSEGDGGRLKPESY [PDCD4]” reads 1.08.
The result for “MDWDDEYSHNSFDLHCLLNSFPGDLEFEQIFSDIDEKIEQNAASIKHCIKEIQSEINKQCPGVQLQTTTDCFEWLTNYNYSTSESSFISHGDLIKFFKTLQDLLKNEQNQEEMTLDLLWDLSCHSSVSFPSTLSGTSFHFLSRTSLHSVEDNSSMDVKSMWDDIRLHLRRFLVSKLQSHNEINNSQQKILLKKQCLQQLLFLYPESEVIIKYQNIQNKLLANLLWNCFPSYNRDSNLDVIAHGYQSTMLKLYSVIKEDFNTLCEILAPSSMVKFIKETYLDTVTEEMAKFLENFCELQFRENAVRVVKTSKSSSKHRGAVHALVTTECPQKGRNFSLPLDKVEFLSQLIKSFMKLEKGVQELFDEILLSLKITRDTSGILEKSDREVVMEKPRANETNIPSEQSLPGKEATLLDFGWRSAFKEVSLPMAHCVVTAIEGFSTKILQQEQNERSSAVSYAMNLVNVQQVWQDSHMFPEEEQPKKIGKFCSDIMEKLDTMLPLALACRDDSFQEIRANLVEACCKVATAVLQRLQERAKEVPSKAPLKNLHTYLSTAVYVFQHFKRYDNLMKEMTKKPIFLVLVQRYQEFINTLQFQVTNYCVRVCATSILQDAESHHWDDYKAFYEGERCSFSIQMWHYFCWSLHYDLWTILPPKLAQEILVEVLEKSLSLLASRYARAHPSRKRTPQLRLDVTTILICTENMLWSVCTSVQKLLNPHQHTDDKIFKIHTHCNNLFTTLVILTSPLTELYKTFQHGLDESASDSLKSFFKQPLYWVSCISHFYPSLLRTPSAGGLKAEGQLKLLLSQPRCNWNLLLETLLHHDGLLLRILLKSSKQVSDTENNLNQGPSLMEAIFKILYHCSFSPQTFANVFVSYMEEEQLWDFLYNIPVSTCVEYELEVIRCLRLALTDAIKDTVQQIVSVMSSRRNCETNLNKHIVPDCLLESMPKEWNYSPKETNRKESCKSFTRLTAQAVSIVISKLPTVIACLPPPVKYFFFLSERKMSKKFVELKKAGLLVWNLIVIICRIFEDGNTVELLTGASLDRWSKEKLGLICMCLKSIMGDQTSIHNQMIQKVIQSIEQQKPNWIERQLLKARKLSTECAFMTIEKSTALQEGDVALELTEQKINTMVLDLCHKPGGREYLRQIYHIMQLNEEYLKEQLFSMNSSEEKPLPIRPLKTTLRSIEDQPSAFNPFHVYKAFSENMLDQSAITKWNWNWAKLLPNYLRLDKMTFSVLLKNRWEMKKDETLEEEEKAILEHLKQICTPQNSSASDNIEEQ [C5orf36]” reads 1.
The result for “MEAAAEPGNLAGVRHIILVLSGKGGVGKSTISTELALALRHAGKKVGILDVDLCGPSIPRMLGAQGRAVHQCDRGWAPVFLDREQSISLMSVGFLLEKPDEAVVWRGPKKNALIKQFVSDVAWGELDYLVVDTPPGTSDEHMATIEALRPYQPLGALVVTTPQAVSVGDVRRELTFCRKTGLRVMGIVENMSGFTCPHCTECTSVFSRGGGEELAQLAGVPFLGSVPLDPALMRTLEEGHDFIQEFPGSPAFAALTSIAQKILDATPACLP [NUBP2]” reads 1.32 ± 0.035; that for “MEDAAAPGRTEGVLERQGAPPAAGQGGALVELTPTPGGLALVSPYHTHRAGDPLDLVALAEQVQKADEFIRANATNKLTVIAEQIQHLQEQARKVLEDAHRDANLHHVACNIVKKPGNIYYLYKRESGQQYFSIISPKEWGTSCPHDFLGAYKLQHDLSWTPYEDIEKQDAKISMMDTLLSQSVALPPCTEPNFQGLTH [C1orf50]”, 1.17.
“MEDCCMLPYYTAQSSPAMGMFNTSMGKLQRQLYKGEYTIFRYAPMFESDFIQISKRGEVIDVHNRARMVTMGIVRTSPCLTLPDVMLLARPAAVCDNARCGPATQKRESPPAEILELTRLLPLMFVKITIHNSVKKQLHLKLATGRSFYLQLCPPSDASEDLFVHWENLVYILRPPVEAYSDTRAILAGNTLDSSVLEEVQRSPVGYAMKFCEEKEQFRISRLHMNAEMFGSTYCDYTIEI [FAM71C]”: the “relative ERE luciferase activity” value amounted to 1.
The result for “MEDFATRTYGTSGLDNRPLFGETSAKDRIINLVVGSLTSLLILVTLISAFVFPQLPPKPLNIFFAVCISLSSITACILIYWYRQGDLEPKFRKLIYYIIFSIIMLCICANLYFHDVGR [C7orf23]” reads 1.23; that for “MEDKRSLSMARCEERNSRGQDHGLERVPFPPQLQSETYLHPADPSPAWDDPGSTGSPNLRLLTEEIAFQPLAEEASFRRPHPDGDVPPQGEDNLLSLPFPQKLWRLVSSNQFSSIWWDDSGACRVINQKLFEKEILKRDVAHKVFATTSIKSFFRQLNLYGFRKRRQCTFRTFTRIFSAKRLVSILNKLEFYCHPYFQRDSPHLLVRMKRRVGVKSAPRHQEEDKPEAAGSCLAPADTEQQDHTSPNENDQVTPQHREPAGPNTQIRSGSAPPATPVMVPDSAVASDNSPVTQPAGEWSEGSQAHVTPVAAVPGPAALPFLYVPGSPTQMNSYGPVVALPTASRSTLAMDTTGLPAPGMLPFCHLWVPVTLVAAGAAQPAASMVMFPHLPALHHHCPHSHRTSQYMPASDGPQAYPDYADQST [HSFX1]”, 1.32.
The result for “MEGESTSAVLSGFVLGALAFQHLNTDSDTEGFLLGEVKGEAKNSITDSQMDDVEVVYTIDIQKYIPCYQLFSFYNSSGEVNEQALKKILSNVKKNVVGWYKFRRHSDQIMTFRERLLHKNLQEHFSNQDLVFLLLTPSIITESCSTHRLEHSLYKPQKGLFHRVPLVVANLGMSEQLGYKTVSGSCMSTGFSRAVQTHSSKFFEEDGSLKEVHKINEMYASLQEELKSICKKVEDSEQAVDKLVKDVNRLKREIEKRRGAQIQAAREKNIQKDPQENIFLCQALRTFFPNSEFLHSCVMSLKNRHVSKSSCNYNHHLDVVDNLTLMVEHTDIPEASPASTPQIIKHKALDLDDRWQFKRSRLLDTQDKRSKADTGSSNQDKASKMSSPETDEEIEKMKGFGEYSRSPTF [CCDC98]” reads 1.12; that for “MEGTVESQTPDLRDVEGKVGRKTPEGLLRGLRGECELGTSGALLLPGASSTGHDLGDKIMALKMELAYLRAIDVKILQQLVTLNEGIEAVRWLLEERGTLTSHCSSLTSSQYSLTGGSPGRSRRGSWDSLPDTSTTDRLDSVSIGSFLDTVAPSELDEQGPPGAPRSEMDWAKVIAGGERARTEVDVAATRLGSLRAVWKPPGERLQGGPPESPEDESAKLGFEAHWFWEQCQDDVTFL [C1orf190]”, 2.55.
In the case of “MEKEKGNDDGIPDQENSLDFSEHFNQLELLETHGHLIPTGTQSLWVGNSDEDEEQDDKNEEWYRLQEKKMEKDPSRLLLWAAEKNRLTTVRRLLSEKATHVNTRDEDEYTPLHRAAYSGHLDIVQELIAQGADVHAVTVDGWTPLHSACKWNNTRVASFLLQHDADINAQTKGLLTPLHLAAGNRDSKDTLELLLMNRYVKPGLKNNLEETAFDIARRTSIYHYLFEIVEGCTNSSPQS [ANKRD49]”, the “relative ERE luciferase activity” value stood at 1.02.
The result for “MEKLYSENEGMASNQGKMENEEQPQDERKPEVTCTLEDKKLENEGKTENKGKTGDEEMLKDKGKPESEGEAKEGKSEREGESEMEGGSEREGKPEIEGKPESEGEPGSETRAAGKRPAEDDVPRKAKRKTNKGLAHYLKEYKEAIHDMNFSNEDMIREFDNMAKVQDEKRKSKQKLGAFLWMQRNLQDPFYPRGPREFRGGCRAPRRDIEDIPYV [TCEAL4]” reads 1.16; that for “MEKTELIQKAKLAEQAERYDDMATCMKAVTEQGAELSNEERNLLSVAYKNVVGGRRSAWRVISSIEQKTDTSDKKLQLIKDYREKVESELRSICTTVLELLDKYLIANATNPESKVFYLKMKGDYFRYLAEVACGDDRKQTIDNSQGAYQEAFDISKKEMQPTHPIRLGLALNFSVFYYEILNNPELACTLAKTAFDEAIAELDTLNEDSYKDSTLIMQLLRDNLTLWTSDSAGEECDAAEGAEN [YWHAQ]”, 1.03; that for “MELKQSLSTHLEAEKPLRRYGAVEETAWKTERLGRNQLDIISMAETTMMPEEIELEMAKIQRLREVLVRRESELRFMMDDIQLCKDIMDLKQELQNLVAIPEKEKTKLQKQREDELIQKIHKLVQKRDFLVDDAEVERLREQEEDKEMADFLRIKLKPLDKVTKSPASSRAEKKAEPPPSKPTVAKTGLALIKDCCGATQCNIM [C16orf45]”, 1.05.
To “MESTLGAGIVIAEALQNQLAWLENVWLWITFLGDPKILFLFYFPAAYYASRRVGIAVLWISLITEWLNLIFKWFLFGDRPFWWVHESGYYSQAPAQVHQFPSSCETGPGSPSGHCMITGAALWPIMTALSSQVATRARSRWVRVMPSLAYCTFLLAVGLSRIFILAHFPHQVLAGLITGAVLGWLMTPRVPMERELSFYGLTALALMLGTSLIYWTLFTLGLDLSWSISLAFKWCERPEWIHVDSRPFASLSRDSGAALGLGIALHSPCYAQVRRAQLGNGQKIACLVLAMGLLGPLDWLGHPPQISLFYIFNFLKYTLWPCLVLALVPWAVHMFSAQEAPPIHSS [G6PC3]” belongs 1.32.
To “METFDPTELPELLKLYYRRLFPYSQYYRWLNYGGVIKNYFQHREFSFTLKDDIYIRYQSFNNQSDLEKEMQKMNPYKIDIGAVYSHRPNQHNTVKLGAFQAQEKELVFDIDMTDYDDVRRCCSSADICPKCWTLMTMAIRIIDRALKEDFGFKHRLWVYSGRRGVHCWVCDESVRKLSSAVRSGIVEYLSLVKGGQDVKKKVHLSEKIHPFIRKSINIIKKYFEEYALVNQDILENKESWDKILALVPETIHDELQQSFQKSHNSLQRWEHLKKVASRYQNNIKNDKYGPWLEWEIMLQYCFPRLDINVSKGINHLLKSPFSVHPKTGRISVPIDLQKVDQFDPFTVPTISFICRELDAISTNEEEKEENEAESDVKHRTRDYKKTSLAPYVKVFEHFLENLDKSRKGELLKKSDLQKDF [PRIM1]” belongs 1.01; to “METLSQDSLLECQICFNYYSPRRRPKLLDCKHTCCSVCLQQMRTSQKDVRCPWCRGVTKLPPGFSVSQLPDDPEVLAVIAIPHTSEHTPVFIKLPSNGCYMLPLPISKERALLPGDMGCRLLPGSQQKSVTVVTIPAEQQPLQGGAPQEAVEEEQDRRGVVKSSTWSGVCTVILVACVLVFLLGIVLHNMSCISKRFTVISCG [RNF152]”, 1.11.
